Reference: article PMC3364202
No constants are given. Whether binding was seen depends on the method and setting. Binding seen in cells or lysates may run through a third protein. Some entries that bind do so weakly or less than the wild type.

Protein sequences, listed by entry. Tags and fused reporters are not part of them.
UniProt Q99700: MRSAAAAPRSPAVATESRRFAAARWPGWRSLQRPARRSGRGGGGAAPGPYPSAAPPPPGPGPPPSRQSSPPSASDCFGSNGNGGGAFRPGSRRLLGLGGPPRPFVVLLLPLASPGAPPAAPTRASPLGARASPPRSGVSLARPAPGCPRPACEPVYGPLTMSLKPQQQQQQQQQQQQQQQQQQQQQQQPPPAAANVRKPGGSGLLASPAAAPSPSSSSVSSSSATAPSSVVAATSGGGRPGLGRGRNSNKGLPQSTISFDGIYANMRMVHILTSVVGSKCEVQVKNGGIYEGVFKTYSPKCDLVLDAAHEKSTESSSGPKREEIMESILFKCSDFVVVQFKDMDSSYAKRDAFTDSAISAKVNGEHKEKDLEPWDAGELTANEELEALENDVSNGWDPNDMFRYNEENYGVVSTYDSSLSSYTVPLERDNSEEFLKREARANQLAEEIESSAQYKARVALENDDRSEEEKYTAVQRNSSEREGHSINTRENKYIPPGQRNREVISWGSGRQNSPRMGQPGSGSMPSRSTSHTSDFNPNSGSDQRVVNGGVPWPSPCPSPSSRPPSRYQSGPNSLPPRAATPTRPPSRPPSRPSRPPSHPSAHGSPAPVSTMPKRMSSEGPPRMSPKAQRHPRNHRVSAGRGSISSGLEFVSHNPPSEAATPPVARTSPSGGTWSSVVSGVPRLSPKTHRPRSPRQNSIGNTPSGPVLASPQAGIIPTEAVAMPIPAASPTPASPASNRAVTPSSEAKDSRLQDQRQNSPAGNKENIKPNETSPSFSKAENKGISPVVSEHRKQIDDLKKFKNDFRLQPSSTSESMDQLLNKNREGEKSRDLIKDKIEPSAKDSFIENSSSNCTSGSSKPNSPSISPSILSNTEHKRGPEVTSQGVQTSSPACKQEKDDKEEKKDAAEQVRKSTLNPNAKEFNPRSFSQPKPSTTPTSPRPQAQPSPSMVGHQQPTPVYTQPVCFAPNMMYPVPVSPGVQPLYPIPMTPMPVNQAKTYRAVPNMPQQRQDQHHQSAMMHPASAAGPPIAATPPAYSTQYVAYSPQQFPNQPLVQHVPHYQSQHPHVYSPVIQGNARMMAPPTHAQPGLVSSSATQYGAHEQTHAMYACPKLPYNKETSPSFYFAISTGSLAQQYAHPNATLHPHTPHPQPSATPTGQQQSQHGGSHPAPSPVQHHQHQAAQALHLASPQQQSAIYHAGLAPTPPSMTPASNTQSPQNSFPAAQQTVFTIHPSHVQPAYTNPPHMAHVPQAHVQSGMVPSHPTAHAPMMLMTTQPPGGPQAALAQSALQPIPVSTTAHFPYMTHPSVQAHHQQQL
UniProt P54253: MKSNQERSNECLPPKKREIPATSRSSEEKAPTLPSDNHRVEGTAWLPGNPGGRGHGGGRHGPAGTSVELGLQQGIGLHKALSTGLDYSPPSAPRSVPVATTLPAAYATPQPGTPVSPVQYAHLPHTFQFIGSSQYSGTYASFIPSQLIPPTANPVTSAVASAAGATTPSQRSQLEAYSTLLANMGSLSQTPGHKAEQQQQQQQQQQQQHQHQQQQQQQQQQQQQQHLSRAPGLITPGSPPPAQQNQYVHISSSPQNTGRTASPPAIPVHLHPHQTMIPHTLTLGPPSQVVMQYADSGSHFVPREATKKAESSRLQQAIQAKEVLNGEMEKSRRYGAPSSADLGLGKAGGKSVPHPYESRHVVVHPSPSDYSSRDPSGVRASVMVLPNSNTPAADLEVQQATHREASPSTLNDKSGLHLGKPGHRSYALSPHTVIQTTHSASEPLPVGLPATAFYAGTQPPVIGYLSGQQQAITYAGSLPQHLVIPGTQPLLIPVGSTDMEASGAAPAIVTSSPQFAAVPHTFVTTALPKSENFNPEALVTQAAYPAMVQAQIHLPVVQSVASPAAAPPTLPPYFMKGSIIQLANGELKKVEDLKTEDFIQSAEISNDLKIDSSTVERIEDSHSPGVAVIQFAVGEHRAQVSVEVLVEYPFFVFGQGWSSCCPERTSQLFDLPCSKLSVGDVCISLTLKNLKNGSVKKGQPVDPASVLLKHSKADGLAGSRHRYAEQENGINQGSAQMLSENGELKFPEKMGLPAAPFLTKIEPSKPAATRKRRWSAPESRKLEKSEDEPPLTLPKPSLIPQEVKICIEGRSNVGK

Assays:
[1] = molecular target: T1, FOX-2 (endogenous, HeLa) (human (endogenous in HeLa)) (UniProt O43251); test: co-IP; HeLa cell lysate (20 mM Tris-HCl pH 7.4, 150 mM NaCl, 1 mM EDTA, 1% Triton X-100, Benzonase), anti-FOX-2 (Bethyl), Dynabeads; blot with anti-ATXN2 (BD-Biosciences)
T1 sequence: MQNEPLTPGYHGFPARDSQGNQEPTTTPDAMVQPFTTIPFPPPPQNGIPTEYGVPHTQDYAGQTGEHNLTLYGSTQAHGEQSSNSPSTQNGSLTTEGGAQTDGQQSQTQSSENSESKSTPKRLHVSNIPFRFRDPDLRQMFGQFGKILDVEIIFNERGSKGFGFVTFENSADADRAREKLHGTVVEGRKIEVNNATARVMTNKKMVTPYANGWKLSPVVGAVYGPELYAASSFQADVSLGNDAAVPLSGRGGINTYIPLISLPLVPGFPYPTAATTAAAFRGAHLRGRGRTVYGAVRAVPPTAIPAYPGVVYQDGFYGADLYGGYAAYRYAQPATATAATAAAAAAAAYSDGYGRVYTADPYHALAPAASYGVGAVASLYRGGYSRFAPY

[2] = molecular target: T2, FOX-2 (endogenous, HEK293T) (human (endogenous in HEK293T)) (UniProt O43251); test: co-IP; lysate (1 mg) of non-transfected HEK293T cells, anti-FOX-2 (Abnova) overnight at 4°C, Dynabeads; blot with anti-ATXN1; control without primary antibody
T2 sequence: T1 sequence

Substance	binding [1]	binding [2]
ATXN2 (endogenous, HeLa) (from UniProt Q99700 1-1313)	binds	–
ATXN1 (endogenous, HEK293T) (from UniProt P54253 1-815)	–	binds
